Values joined by “and” are separate entries in the source; they are usually repeats but may differ in a detail not shown here. Equal values may be shown once. Where a name gives a salt, the structure may show the parent alone. This is one part of the list. Most entries show no effect beyond the scatter of the controls. *1 amine or outer side, *2 acyl side, *3 side chain or, on linkers, in order; H or OH if unused. Where a SMILES comes first, the peptide text is derived from it. Bridges are numbered along the chain shown (N, C = ends). [ ]: non-standard residue; d: D form. The star is where a group is joined. pTerphenylCO(4''-OnC5H11) = CCCCCOc1ccc(-c2ccc(-c3ccc(C(=O)*)cc3)cc2)cc1; Orn(4R-OH,5R-OH) = O=C([C@H](C[C@@H](O)[C@@H](O)N[*:3])N[*:1])[*:2]; hTyr(3S-OH,4S-OH) = N[C@H](C(=O)O)[C@H](O)[C@@H](O)c1ccc(O)cc1; Pro(3S-OH,4S-Me) = C[C@H]1CN[C@H](C(=O)O)[C@H]1O; Hyp = O=C(O)[C@@H]1C[C@@H](O)CN1; Cbz = O=C(OCc1ccccc1)*; CH2F = FC*
What follows are compounds tested on hPSC-derived cortical neurons (WA09) (assay: KCl-induced FOS+/EGR-1+ double-positive nuclei fraction z-score (KCl minus unstimulated); higher = stronger activity-induced IEG response). Settings: 5 µM; treatment: days 7-14 after plating, readout day 21.
With `N[C@H]1CC[C@H](N[C@@H]2C[C@H]2c2ccccc2)CC1` the “KCl-induced FOS+/EGR-1+ double-positive nuclei fraction z-score” value was 1.5. `C=C1/C(=C\C=C2/CCC[C@]3(C)[C@@H]([C@H](C)CCCC(C)C)CC[C@@H]23)C[C@@H](O)C[C@@H]1O` [Alfacalcidol] was tested, and the “KCl-induced FOS+/EGR-1+ double-positive nuclei fraction z-score” value was 0.302. `O=C(O)CCNc1cc(N2CCc3ccccc3CC2)nc(-c2ccccn2)n1` was tested, and the “KCl-induced FOS+/EGR-1+ double-positive nuclei fraction z-score” value was -0.334. For `O=C(NOC[C@H](O)CO)c1ccc(F)c(F)c1Nc1ccc(I)cc1F`, the “KCl-induced FOS+/EGR-1+ double-positive nuclei fraction z-score” value was -0.747. `CCC(C)SSc1ncc[nH]1` (stereo unspecified) was tested, and the “KCl-induced FOS+/EGR-1+ double-positive nuclei fraction z-score” value was 0.0994. In the case of `CN(c1ncccc1CNc1nc(Nc2ccc3c(c2)CC(=O)N3)ncc1C(F)(F)F)S(C)(=O)=O`, the “KCl-induced FOS+/EGR-1+ double-positive nuclei fraction z-score” value is reported as -0.657 and -1.1 and -1.02. In the case of `COC(=O)N[C@H](C(=O)N1CC2(CC2)C[C@H]1c1nc(-c2ccc3c(c2)C(F)(F)c2cc(-c4ccc5[nH]c([C@@H]6[C@H]7CC[C@H](C7)N6C(=O)[C@@H](NC(=O)OC)C(C)C)nc5c4)ccc2-3)c[nH]1)C(C)C` [Ledipasvir (GS5885)], the “KCl-induced FOS+/EGR-1+ double-positive nuclei fraction z-score” value is reported as -1.11. In the case of `CN1CCN(C(=O)c2cc3cc(Cl)ccc3[nH]2)CC1`, the “KCl-induced FOS+/EGR-1+ double-positive nuclei fraction z-score” value is reported as 2.02. `CC(C)(O)CNc1nc(Nc2ccnc(C(F)(F)F)c2)nc(-c2cccc(C(F)(F)F)n2)n1` [Enasidenib (AG-221)] was tested, and the “KCl-induced FOS+/EGR-1+ double-positive nuclei fraction z-score” value was 2.27. With `CC(C)Cn1cnc2c(N)nc3ccccc3c21` [Imiquimod] the “KCl-induced FOS+/EGR-1+ double-positive nuclei fraction z-score” value was -0.123. With `CCC/N=C1\S/C(=C\c2ccc(OC[C@H](O)CO)c(Cl)c2)C(=O)N1c1ccccc1C` [Ponesimod] the “KCl-induced FOS+/EGR-1+ double-positive nuclei fraction z-score” value was 0.771. For `CCOC(=O)c1[nH]c2cc(Cl)ccc2c1C(C(=O)NC(C)(C)C)N(C=O)Cc1ccc(Cl)cc1` (stereo unspecified), the “KCl-induced FOS+/EGR-1+ double-positive nuclei fraction z-score” value was -1.07. With `Cc1cc(Nc2ccc(NC(=O)c3ccc(Nc4ccnc5ccccc45)cc3)cc2)nc(N)n1` the “KCl-induced FOS+/EGR-1+ double-positive nuclei fraction z-score” value was -6.99. With `COc1cc(O)c(CC=C(C)C)c(O)c1C(=O)/C=C/c1ccc(O)cc1` [Xanthohumol] the “KCl-induced FOS+/EGR-1+ double-positive nuclei fraction z-score” value was -0.848. `CC[C@@H]1/C=C(\C)C[C@H](C)C[C@H](OC)[C@H]2O[C@@](O)(C(=O)C(=O)N3CCCC[C@H]3C(=O)O[C@H](/C(C)=C/[C@@H]3CC[C@H](Cl)[C@H](OC)C3)[C@H](C)[C@@H](O)CC1=O)[C@H](C)C[C@@H]2OC` [Pimecrolimus] was tested, and the “KCl-induced FOS+/EGR-1+ double-positive nuclei fraction z-score” value was -0.344. For `Cc1ncc([N+](=O)[O-])n1CCO` [Metronidazole], the “KCl-induced FOS+/EGR-1+ double-positive nuclei fraction z-score” value was -0.621. For `CN(C)CCCN1c2ccccc2CCc2ccccc21` [Imipramine HCl], the “KCl-induced FOS+/EGR-1+ double-positive nuclei fraction z-score” value was -0.0111. With `C#Cc1cccc(Nc2ncnc3cc(OCCOC)c(OCCO)cc23)c1` the “KCl-induced FOS+/EGR-1+ double-positive nuclei fraction z-score” value was 0.886. For `Nc1nc(=S)c2ncn([C@H]3C[C@H](O)[C@@H](CO)O3)c2[nH]1`, the “KCl-induced FOS+/EGR-1+ double-positive nuclei fraction z-score” value was 0.513. For `O=C(NC[C@H](O)CO)c1ccncc1Nc1ccc(I)cc1F`, the “KCl-induced FOS+/EGR-1+ double-positive nuclei fraction z-score” value was -1.29. `CCc1c2c(nc3ccc(OC(=O)N4CCC(N5CCCCC5)CC4)cc13)-c1cc3c(c(=O)n1C2)COC(=O)[C@]3(O)CC` [Irinotecan] was tested, and the “KCl-induced FOS+/EGR-1+ double-positive nuclei fraction z-score” value was 0.508. In the case of `Cc1onc(-c2ccccc2)c1C(=O)N[C@@H]1C(=O)N2[C@@H]1SC(C)(C)[C@@H]2C(=O)O` [Oxacillin sodium monohydrate], the “KCl-induced FOS+/EGR-1+ double-positive nuclei fraction z-score” value is reported as -0.126. In the case of `Cc1nnc(NS(=O)(=O)c2ccc(N)cc2)s1` [Sulfamethizole], the “KCl-induced FOS+/EGR-1+ double-positive nuclei fraction z-score” value is reported as 0.419. `C=CC(=O)Nc1cccc(C)c1Nc1ncc2cc(-c3c(Cl)c(OC)cc(OC)c3Cl)ccc2n1` was tested, and the “KCl-induced FOS+/EGR-1+ double-positive nuclei fraction z-score” value was -0.855. For `CC(C)c1nc(CN(C)C(=O)N[C@H](C(=O)N[C@@H](Cc2ccccc2)C[C@H](O)[C@H](Cc2ccccc2)NC(=O)OCc2cncs2)C(C)C)cs1` [Ritonavir], the “KCl-induced FOS+/EGR-1+ double-positive nuclei fraction z-score” value was 0.106. With `CCCCCOc1ccc(-c2ccc(-c3ccc(C(=O)N[C@H]4C[C@@H](O)[C@@H](O)NC(=O)[C@@H]5[C@@H](O)[C@@H](C)CN5C(=O)[C@H]([C@@H](C)O)NC(=O)[C@H]([C@H](O)[C@@H](O)c5ccc(O)cc5)NC(=O)[C@@H]5C[C@@H](O)CN5C(=O)[C@H]([C@@H](C)O)NC4=O)cc3)cc2)cc1` ({pTerphenylCO(4''-OnC5H11)}-[Orn(4R-OH,5R-OH)]T[Hyp][hTyr(3S-OH,4S-OH)]T[Pro(3S-OH,4S-Me)]; lactam 1-C) the “KCl-induced FOS+/EGR-1+ double-positive nuclei fraction z-score” value was -0.375. In the case of `CC1(C)O[C@H]2CC(=O)OC[C@]23[C@H]2CC[C@@]4(C)[C@H](c5ccoc5)OC(=O)[C@H]5O[C@]54[C@]2(C)C(=O)C[C@@H]13` [Limonin], the “KCl-induced FOS+/EGR-1+ double-positive nuclei fraction z-score” value is reported as 0.974. With `CO/N=C(\C(=O)N[C@@H]1C(=O)N2C(C(=O)O)=C(CSc3nc(=O)c(O)nn3C)CS[C@H]12)c1csc(N)n1` [Ceftriaxone Sodium Trihydrate] the “KCl-induced FOS+/EGR-1+ double-positive nuclei fraction z-score” value was 0.422. With `Cn1nnc(-c2ccc3c(c2)[nH]c2nc(Cc4ccccc4)nc(NC4CCC(N)CC4)c23)n1` (stereo unspecified) the “KCl-induced FOS+/EGR-1+ double-positive nuclei fraction z-score” value was -0.319. With `Cc1cc(Nc2cc(N3CCN(C)CC3)nc(Sc3ccc(NC(=O)C4CC4)cc3)n2)n[nH]1` [VX-680 (Tozasertib_ MK-0457)] the “KCl-induced FOS+/EGR-1+ double-positive nuclei fraction z-score” value was -0.438. `CCCCC(F)(F)[C@@]1(O)CC[C@H]2[C@@H](CC(=O)[C@@H]2CCCCCCC(=O)O)O1` [Lubiprostone] was tested, and the “KCl-induced FOS+/EGR-1+ double-positive nuclei fraction z-score” value was -0.45. For `Cn1cc(-c2ccc3ncc(Cc4ccc5ncccc5c4)n3n2)cn1`, the “KCl-induced FOS+/EGR-1+ double-positive nuclei fraction z-score” value was -0.184. With `Cc1cn([C@H]2O[C@@H](CO)[C@H](O)[C@H]2F)c(=O)[nH]c1=O` [Clevudine] the “KCl-induced FOS+/EGR-1+ double-positive nuclei fraction z-score” value was 0.836. In the case of `COC(=O)C[C@H](NC(=O)[C@H](C)NC(=O)[C@@H](NC(=O)OCc1ccccc1)C(C)C)C(=O)CF` (Cbz-Val-Ala-Asp(OMe)-CH2F), the “KCl-induced FOS+/EGR-1+ double-positive nuclei fraction z-score” value is reported as -0.275. For `CN(C)CCC[C@@]1(c2ccc(F)cc2)OCc2cc(C#N)ccc21` [Escitalopram Oxalate], the “KCl-induced FOS+/EGR-1+ double-positive nuclei fraction z-score” value was 2.16. For `CC(C)[C@H](O)C(=O)N[C@@H](C)C(=O)N[C@@H]1C(=O)N(C)CCc2ccccc21`, the “KCl-induced FOS+/EGR-1+ double-positive nuclei fraction z-score” value was 0.609.

Reference: the supplement of paper PMC11348887
